Some of the results follow. Many values rest on one well or one pass, so single values are uncertain.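 Imaging used 1,536-well plates; nuclei positive for cleaved PARP by antibody were divided by total DNA-stained nuclei to yield the apoptosis fraction. Doses for screening kept most cells viable, and cell lines differ markedly in resting and induced cleaved-PARP levels.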
tested on: RVH-421; experiment: cleaved PARP positive nuclei fraction relative to DMSO control; melanoma cells; higher = more apoptosis; conditions: library dose: low library concentration; 72 h

Compound | cleaved PARP positive nuclei fraction [%]
COc1ccc(C2=N[C@@H](c3ccc(Cl)cc3)[C@@H](c3ccc(Cl)cc3)N2C(=O)N2CCNC(=O)C2)c(OC(C)C)c1 [Nutlin-3] + COc1ccc2c(c1)CCC1C2CCC2(C)C(NCCCCCCN3C(=O)C=CC3=O)CCC12 [U73122] (first compound 0.1 µM, partner dose 0.4 µM) | 82.9
CS(=O)(=O)c1ccc(C(=O)Nc2ccc(Cl)c(-c3ccccn3)c2)c(Cl)c1 [vismodegib] + Cc1cc(N2CCOCC2)cc2[nH]c(-c3c(NC[C@@H](O)c4cccc(Cl)c4)cc[nH]c3=O)nc12 [BMS536924] (first compound 1 µM, partner dose 0.2 µM) | 91.3
CC1(C)CCC(c2ccc(Cl)cc2)=C(CN2CCN(c3ccc(C(=O)NS(=O)(=O)c4ccc(N[C@H](CCN5CCOCC5)CSc5ccccc5)c(S(=O)(=O)C(F)(F)F)c4)cc3)CC2)C1 + Cc1cc(N2CCOCC2)cc2[nH]c(-c3c(NC[C@@H](O)c4cccc(Cl)c4)cc[nH]c3=O)nc12 [BMS536924] (first compound 0.4 µM, partner dose 0.2 µM) | 234
CC(=O)O[C@@]12CO[C@@H]1C[C@H](O)[C@@]1(C)C(=O)[C@H](O)C3=C(C)[C@@H](OC(=O)[C@H](O)[C@@H](NC(=O)OC(C)(C)C)c4ccccc4)C[C@@](O)([C@@H](OC(=O)c4ccccc4)[C@H]21)C3(C)C [Docetaxel] + Cc1ccc(NC(=O)c2cccc(N(C)C)c2)cc1NC(=O)c1ccc(O)cc1 [ZM336372] (first compound 0.0001 µM, partner dose 2 µM) | 57.8

From the supplement of paper PMC4604168 (melanoma cell lines)
